Assay results from PubChem BioAssay AID651768 (National Center for Advancing Translational Sciences (NCATS), 2012).
Hit rate of the full screen: of about 360,000 compounds, about 1,700 (0.47%) were called active. The inconclusive results got no clear call from the source; some entries with a clear call stand among them for comparison. Calls come from the whole dose curve; as a rule, active = well fitted inhibition curve with a large enough effect; inconclusive = small, poorly fitted or top-dose-only effect; inactive = no such curve, though single readings can be large or run the other way. Potencies beside an inconclusive call are fits to weak or partial responses and may not hold up. A structure can be active in one record and inactive in another.

Chains of the proteins cited; added tags and fusions are not shown.
UniProt Q14191, whole entry, looked up: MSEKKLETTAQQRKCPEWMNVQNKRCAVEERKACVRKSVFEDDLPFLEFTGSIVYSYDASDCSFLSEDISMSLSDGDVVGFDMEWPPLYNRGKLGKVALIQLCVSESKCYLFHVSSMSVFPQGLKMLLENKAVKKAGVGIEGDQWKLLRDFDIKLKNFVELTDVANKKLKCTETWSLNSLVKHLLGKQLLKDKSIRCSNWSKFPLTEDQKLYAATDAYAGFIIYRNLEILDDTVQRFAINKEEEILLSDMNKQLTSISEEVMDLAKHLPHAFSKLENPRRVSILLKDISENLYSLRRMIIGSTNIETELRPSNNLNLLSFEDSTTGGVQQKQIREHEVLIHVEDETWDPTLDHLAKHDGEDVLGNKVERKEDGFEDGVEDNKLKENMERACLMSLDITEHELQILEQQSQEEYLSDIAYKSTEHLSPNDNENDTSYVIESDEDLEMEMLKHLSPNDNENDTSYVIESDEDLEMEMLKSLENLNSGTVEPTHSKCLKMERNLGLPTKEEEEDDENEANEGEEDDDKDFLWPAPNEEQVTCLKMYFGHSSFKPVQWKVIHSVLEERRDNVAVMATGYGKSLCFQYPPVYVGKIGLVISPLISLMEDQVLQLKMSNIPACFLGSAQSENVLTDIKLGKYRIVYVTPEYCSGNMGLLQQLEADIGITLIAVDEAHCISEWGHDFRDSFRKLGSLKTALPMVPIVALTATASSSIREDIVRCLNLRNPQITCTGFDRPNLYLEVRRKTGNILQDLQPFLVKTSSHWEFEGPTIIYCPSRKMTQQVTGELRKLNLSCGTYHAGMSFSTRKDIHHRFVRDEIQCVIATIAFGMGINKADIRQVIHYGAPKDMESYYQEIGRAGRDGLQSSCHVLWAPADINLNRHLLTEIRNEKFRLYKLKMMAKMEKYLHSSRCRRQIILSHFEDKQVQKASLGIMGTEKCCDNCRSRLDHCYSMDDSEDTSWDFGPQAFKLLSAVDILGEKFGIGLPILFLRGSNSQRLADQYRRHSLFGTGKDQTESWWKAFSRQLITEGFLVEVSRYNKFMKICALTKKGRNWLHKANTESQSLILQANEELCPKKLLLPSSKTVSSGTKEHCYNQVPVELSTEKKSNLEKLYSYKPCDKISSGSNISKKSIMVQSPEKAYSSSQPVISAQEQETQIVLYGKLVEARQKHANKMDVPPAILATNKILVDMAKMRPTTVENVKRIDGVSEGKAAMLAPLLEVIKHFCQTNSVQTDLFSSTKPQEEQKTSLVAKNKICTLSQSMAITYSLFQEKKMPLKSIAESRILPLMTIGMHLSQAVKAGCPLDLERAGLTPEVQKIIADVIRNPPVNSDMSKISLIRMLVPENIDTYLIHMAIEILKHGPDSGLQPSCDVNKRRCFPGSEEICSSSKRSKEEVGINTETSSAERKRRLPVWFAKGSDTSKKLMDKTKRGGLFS

target: Bifunctional 3'-5' exonuclease/ATP-dependent helicase WRN (Homo sapiens) (UniProt Q14191); experiment: qHTS for Inhibitors of WRN Helicase; details: WRN helicase unwinding, fluorescent forked duplex, kinetic; activity change, negative = inhibition: at 114 µM (top of the series) unless noted; note: nearly all actives have a fitted effect of over 55% in size
In short: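 Primary qHTS, 1536-well format. 20 nM WRN + compound, 15 min RT; start with 100 nM forked fluorophore/quencher duplex, 2 mM ATP (final); kinetic read ex 525/em 598 nm.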
% is set by controls: 0 for no effect and ±100 for the full control effect; potency is the fitted concentration of half-maximal effect.

**Q.** Cc1c(OCC(N)=O)ccc2c(-c3ccccc3)cc(=O)oc12 was tested. Which Potency did it give?
**A.** active: 50.1 µM

**Q.** For Cc1ccc(-n2c(-c3ccc(Br)cc3)c[n+]3c2CCc2ccc4cccnc4c2-3)cc1, which “activity change, negative = inhibition” value is on record?
**A.** inactive: 3.47%

**Q.** For CCC1(c2ccccc2)SC(N)=NC1=O (stereo not given), which “activity change, negative = inhibition” value is on record?
**A.** inactive: 3.22%

**Q.** With CC(C)(C)c1ccc(O)c(N=Cc2cc3c(cc2[N+](=O)[O-])OCO3)c1 as the molecule, how does the “activity change, negative = inhibition” value read?
**A.** inactive: 8.97%

**Q.** With CCN1CCN(Cc2ccc(NC(=O)c3ccc(C)c(/C=C/c4cnc(Nc5cc(N6CCNCC6)nc(C)n5)cn4)c3)cc2C(F)(F)F)CC1 as the molecule, how does the Potency read?
**A.** active: 20 µM

**Q.** Which Potency does the source give for CCOc1ccc2nc(NC(=O)/C=C/c3ccc4c(c3)OCO4)sc2c1 here?
**A.** inconclusive: 39.8 µM [inhibitor, single point]

**Q.** For CCOc1ccc(N2CC(C(=O)N3CC(C)OC(C)C3)CC2=O)cc1 (stereo not given), which Potency is on record?
**A.** inconclusive: 89.1 µM [inhibitor, single point]

**Q.** For CCOC(=O)C1Nc2ccc(C(F)(F)F)cc2C2c3ccccc3CC12 (stereo not given), which “activity change, negative = inhibition” value is on record?
**A.** inactive: 14.2%

**Q.** With O=S(=O)(c1ccc(Cl)cc1)N1CCN(C(=S)NCC2CCCO2)CC1 (stereo not given) as the molecule, how does the Potency read?
**A.** inconclusive: 89.1 µM [inhibitor, single point]

**Q.** C#CCOCCOCCOCCNc1nc(N2CCN(C(=O)CCCCCCCCCCNC(=O)[C@H](CCCCN)n3cc(CCO)nn3)CC2)nc(N2CCN(C(=O)CCCCCCCCCCNC(=O)[C@H](CCCCN)n3cc(C[C@@H](C)CC)nn3)CC2)n1 was tested. Which Potency did it give?
**A.** active: 50.1 µM

**Q.** Which Potency does the source give for COc1ccc(NC(=O)/C(Cl)=C(/Cl)S(=O)(=O)Cc2ccc(C)cc2)cn1 here?
**A.** active: 50.1 µM

**Q.** For O=C(N/N=C/c1c(O)n(Cc2ccccc2)c(=O)c2ccccc12)c1cccnc1, which Potency is on record?
**A.** inconclusive: 79.4 µM [inhibitor, partial curve]

**Q.** COc1ccc(S(=O)(=O)NCC(=O)N(CC(=O)NCC2CCCO2)Cc2ccc(F)cc2)cc1 (stereo not given) was tested. Which “activity change, negative = inhibition” value did it give?
**A.** inactive: 11.2% [at 57.1 µM]

**Q.** For Cc1oc(-c2cccc(Cl)c2)nc1CN(C)C1CCOC1 (stereo not given), which Potency is on record?
**A.** inconclusive: 28.2 µM [inhibitor, single point]

**Q.** Which Potency does the source give for CCC1=C/C(=C/c2sc3ccccc3[n+]2CC)CC(C)(C)C1 here?
**A.** inconclusive: 50.1 µM [inhibitor, partial curve]

**Q.** CCN1C(=O)C(CC(=O)Nc2ccc(OC)cc2)N(Cc2ccc(OC)c(OC)c2)C1=S (stereo not given) was tested. Which Potency did it give?
**A.** inconclusive: 3.55 µM [inhibitor, full curve, poor fit]

**Q.** Which Potency does the source give for COc1ccc2c(=O)c3c(=O)n(Cc4ccco4)c(-c4ccco4)nc3oc2c1 here?
**A.** active: 44.7 µM

**Q.** How did the Potency turn out when COc1ccc(/C(O)=C/C(=O)C(=O)NNC(=O)C(O)(c2ccccc2)c2ccccc2)cc1 was run?
**A.** inconclusive: 89.1 µM [inhibitor, partial curve]

**Q.** How did the “activity change, negative = inhibition” value turn out when Cc1cccc(NC(=S)NCCc2ccccc2)n1 was run?
**A.** inactive: -4.38%

**Q.** COc1cccc(CC(=O)Nc2nc(-c3cccnc3)cs2)c1 was tested. Which Potency did it give?
**A.** inconclusive: 39.8 µM [inhibitor, single point]

**Q.** For CCOc1ncccc1C(=O)Nc1ccc(OC)c(S(=O)(=O)N2CCOCC2)c1, which Potency is on record?
**A.** inconclusive: 89.1 µM [inhibitor, single point]

**Q.** Which “activity change, negative = inhibition” value does the source give for CC1(C)SC2c3ccccc3C(=O)N2[C@@H]1C(=O)O (stereo not given in full) here?
**A.** inactive: 6.35%

**Q.** How did the Potency turn out when COC(=O)c1ccc(NC(=O)CSc2nc(N)c(NC(=O)c3ccc(Br)o3)c(=O)[nH]2)cc1 was run?
**A.** inconclusive: 12.6 µM [inhibitor, full curve]

**Q.** Cn1c(SCC(=O)c2ccc3c(c2)Cc2ccccc2-3)nnc1-c1ccccc1 was tested. Which Potency did it give?
**A.** inconclusive: 22.4 µM [inhibitor, full curve]

**Q.** How did the Potency turn out when O=[N+]([O-])c1cc2ccccc2c(O)c1O was run?
**A.** inconclusive: 2.67 µM [inhibitor, partial curve]

**Q.** Which Potency does the source give for Cn1ccnc1SCC(=O)c1ccc([N+](=O)[O-])cc1 here?
**A.** inconclusive: 35.5 µM [inhibitor, single point]

**Q.** With COc1ccc(S(=O)(=O)N2CCCCC2)cc1NC(=O)CCc1nc2ccccc2c(=O)[nH]1 as the molecule, how does the “activity change, negative = inhibition” value read?
**A.** inactive: 8.12%

**Q.** With COc1ccc(/C=C\c2nc(O)c([N+](=O)[O-])c(=O)[nH]2)cc1O as the molecule, how does the Potency read?
**A.** inconclusive: 31.6 µM [inhibitor, partial curve]

**Q.** O=C(Cc1nnc(NC(=O)c2ccccc2)s1)N/N=C\c1ccc(O)c(O)c1 was tested. Which Potency did it give?
**A.** active: 17.8 µM

**Q.** Which activity change, negative = inhibition does the source give for COc1cc(/C=N/NC(=O)c2cc(-c3ccco3)nc3ccccc23)cc(OC)c1O here?
**A.** inactive: -11.4% [at 11.6 µM]

**Q.** Which Potency does the source give for C#CCOCCOCCOCCNc1nc(N2CCN(C(=O)CCCCCCCCCCNC(=O)Cn3cc(C[C@@H](C)O)nn3)CC2)nc(N2CCN(C(=O)CCCCCCCCCCNC(=O)[C@@H]([C@H](C)CC)n3cc(CCCCCN)nn3)CC2)n1 here?
**A.** inconclusive: 79.4 µM [inhibitor, partial curve]

**Q.** COc1ccc(C(=O)NCc2nnc(SC)n2C2CCCCC2)cc1 was tested. Which “activity change, negative = inhibition” value did it give?
**A.** inactive: -3.44%

**Q.** For COC(=O)c1ccccc1NC(=O)c1noc2c1CCC2, which Potency is on record?
**A.** inconclusive: 18.9 µM [inhibitor, partial curve]

**Q.** Which “activity change, negative = inhibition” value does the source give for COc1ccccc1/C=C(/NC(=O)c1ccccc1)C(=O)NCCN1CCOCC1 here?
**A.** inactive: -4.41%

**Q.** With Fc1ccc(/C=C2\CCCC3=C2Nc2ncnn2C3c2ccc(F)cc2)cc1 (stereo not given) as the molecule, how does the Potency read?
**A.** active: 50.1 µM

**Q.** Which Potency does the source give for O=C1CCCC2=C1C(c1ccco1)Nc1ccc3ccccc3c12 (stereo not given) here?
**A.** active: 17.8 µM

**Q.** Which “activity change, negative = inhibition” value does the source give for COc1ccc(/C=C2\Oc3cc(OCC(N)=O)ccc3C2=O)cc1OC here?
**A.** inactive: -24.1%

**Q.** With COc1ccc(N(C)S(=O)(=O)c2c(C)[nH]c(=O)[nH]c2=O)c(OC)c1 as the molecule, how does the “activity change, negative = inhibition” value read?
**A.** inactive: -2.42%

**Q.** For CNc1n[nH]c(=S)s1, which Potency is on record?
**A.** inconclusive: 20 µM [inhibitor, full curve]

**Q.** How did the Potency turn out when Cc1cccc(NC(=O)CNC(=O)c2cccc(-n3cccc3)c2)c1C was run?
**A.** inconclusive: 3.77 µM [inhibitor, partial curve]

**Q.** How did the Potency turn out when CCN(CC)S(=O)(=O)c1cccc(NC(=O)COc2ccc(F)cc2Br)c1 was run?
**A.** inconclusive: 79.4 µM [inhibitor, partial curve]

**Q.** For Clc1ccc(C[n+]2csc3ccccc32)cc1, which Potency is on record?
**A.** inconclusive: 50.1 µM [inhibitor, partial curve]

**Q.** How did the activity change, negative = inhibition turn out when O=C(COC(=O)CCc1nc2ccccc2c(=O)[nH]1)Nc1ccccc1 was run?
**A.** inconclusive: -36.9% [inhibitor]

**Q.** With CC(=O)C1C(=O)c2c(cccc2[N+](=O)[O-])C1=Nc1cccc(Cl)c1 (stereo not given) as the molecule, how does the Potency read?
**A.** inconclusive: 8.91 µM [inhibitor, partial curve, poor fit]

**Q.** How did the Potency turn out when Cn1c2ccccc2n2c(=O)cc(-c3ccccc3)c(C#N)c12 was run?
**A.** inconclusive: 7.94 µM [inhibitor, full curve, poor fit]

**Q.** With Cc1ccc(C(=O)O/N=C(\N)c2ccccn2)cc1 as the molecule, how does the “activity change, negative = inhibition” value read?
**A.** inactive: 1.48%

**Q.** How did the Potency turn out when CC(C)c1ccc(S(=O)(=O)/N=C2\C=C(NS(=O)(=O)c3ccccc3)C(=O)c3ccccc32)cc1 was run?
**A.** inconclusive: 50.1 µM [inhibitor, partial curve]

**Q.** Which Potency does the source give for O=c1nc2s/c(=C\c3ccco3)c(=O)n2nc1Cc1ccc(F)cc1 here?
**A.** active: 50.1 µM

**Q.** With O=C(COC(=O)CNC(=O)c1ccc(-c2ccccc2)cc1)NCc1ccco1 as the molecule, how does the “activity change, negative = inhibition” value read?
**A.** inactive: -13.9%

**Q.** Which Potency does the source give for O=C(C#Cc1ccccc1)c1cccc([N+](=O)[O-])c1 here?
**A.** active: 17.8 µM

**Q.** Which Potency does the source give for CC(=O)Oc1cc(C(=O)OCC(=O)N2CCc3ccccc3C2)cc(OC(C)=O)c1OC(C)=O here?
**A.** active: 17.8 µM

**Q.** Which Potency does the source give for COc1ccc(CCN(C)C(=O)c2cc(-c3ccc(C)cc3)nc3ccccc23)cc1OC here?
**A.** inconclusive: 20 µM [inhibitor, full curve]

**Q.** For N#Cc1c(-c2ccc(Cl)cc2)cc(-c2cccs2)nc1SCC(=O)O, which Potency is on record?
**A.** inconclusive: 79.4 µM [inhibitor, single point]

**Q.** Cc1ccc(S(=O)(=O)CCC(=O)OCC(=O)N2CCc3ccccc32)cc1 was tested. Which Potency did it give?
**A.** inconclusive: 50.1 µM [inhibitor, partial curve]

**Q.** With CCOC(=O)c1c(NC(=O)COC(=O)c2cnccn2)sc(C)c1C as the molecule, how does the Potency read?
**A.** inconclusive: 35.5 µM [inhibitor, full curve, poor fit]

**Q.** How did the Potency turn out when O=[N+]([O-])c1ccc(O)c(C2=NNC(c3ccccc3F)C2)c1 (stereo not given) was run?
**A.** inconclusive: 14.1 µM [inhibitor, full curve, poor fit]

**Q.** Which Potency does the source give for Nc1ccc(S(=O)(=O)c2cc(O)c3ccccc3c2O)cc1 here?
**A.** active: 28.2 µM

**Q.** For CC1=NN(c2ccc(C(=O)O)cc2)C(=O)CC1, which “activity change, negative = inhibition” value is on record?
**A.** inactive: -6.96%

**Q.** O=[N+]([O-])c1ccc2c(c1)Cc1cc(F)ccc1-2 was tested. Which “activity change, negative = inhibition” value did it give?
**A.** inactive: 2.88%

**Q.** How did the Potency turn out when C/C(=N\NC(=O)c1ccc(-c2ccccc2)cc1)C1C(=O)c2ccccc2C1=O was run?
**A.** inconclusive: 50.1 µM [inhibitor, partial curve]

**Q.** O=S(=O)(c1cccc(COc2ccc(Cl)cc2Cl)c1)N1CCOCC1 was tested. Which Potency did it give?
**A.** inconclusive: 44.7 µM [inhibitor, full curve, poor fit]

**Q.** How did the “activity change, negative = inhibition” value turn out when NC(=O)c1ccsc1NC(=O)COC(=O)c1ccccc1F was run?
**A.** inactive: 5.58%

**Q.** For O=C(Cc1n[nH]c(=O)[nH]c1=O)N/N=C/c1cccc(Cl)c1, which “activity change, negative = inhibition” value is on record?
**A.** inactive: -5.65%

**Q.** How did the Potency turn out when COc1cccc(/C=C2/NC(=O)N(CC(=O)Nc3ccc(C)cc3)C2=O)c1OCc1cccc(C(=O)O)c1 was run?
**A.** inconclusive: 50.1 µM [inhibitor, partial curve]

**Q.** Cc1cc(C(=O)NC2CCCc3c2cnn3-c2ccccc2F)nc(C)n1 (stereo not given) was tested. Which Potency did it give?
**A.** inconclusive: 79.4 µM [inhibitor, single point]

**Q.** O=C(CCN1C(=O)C2C3C=CC(C3)C2C1=O)Nc1c(F)cccc1F (stereo not given) was tested. Which Potency did it give?
**A.** inconclusive: 89.1 µM [inhibitor, single point]

**Q.** For CCCCn1nc(C(=O)Nc2ccc(S(=O)(=O)Nc3ncccn3)cc2)c2ccccc2c1=O, which Potency is on record?
**A.** inconclusive: 89.1 µM [inhibitor, single point]

**Q.** Which “activity change, negative = inhibition” value does the source give for CCOC(=O)c1c(C)n(CC(O)CN(C)C)c2cc(Br)c(OC)cc12 (stereo not given) here?
**A.** inactive: 14.2%

**Q.** Which “activity change, negative = inhibition” value does the source give for CCOc1cc(N2CCCC2)ccc1[N+](=O)[O-] here?
**A.** inactive: 3.51%

**Q.** For COc1ccc(Br)cc1/C=N/Nc1ccc(S(=O)(=O)Nc2ccccc2C(=O)O)cc1[N+](=O)[O-], which Potency is on record?
**A.** active: 39.8 µM
